PubChem BioAssay AID686937 – Drosophila RNAi Screening Center – 2013

Aim: 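Knock-downs that reduce output of a secreted reporter enzyme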 (primary screen)
Cell system: Drosophila S2 cells expressing secreted horseradish peroxidase
Knock-down reagent: long dsRNA against Drosophila genes
Timing: about 5.5 days (5 days dsRNA, then 12 h reporter induction)
Challenge: reporter expression induced after 5 days of dsRNA, read 12 h later; inducer not stated
Measurement: 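After 5 days of dsRNA and 12 h of reporter induction, medium peroxidase read by chemiluminescence and scored as per-plate z-score; higher values mean more reporter released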
Reading the numbers: z-score: higher = more reporter secreted into medium
The screen tested about 23,000 reagents; this is a random part of those that have a named target and a result. 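Reduced-secretion tags in replicate 1 do not always agree with the z-scores; no criterion for assigning the tags was given.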 Names joined by + are all predicted targets of the reagent. No sequences are given here. The record does not give: the amount of reagent.

gene | dsRNA | z-score, replicate 1 | z-score, replicate 2 | z-score, replicate 3 | z-score, replicate 4 | phenotype, replicate 1
kat-60L1 (GeneID 40715) | DRSC12184 | 0.2 | 0.19 | – | – | –
CG10465 (GeneID 35488) | DRSC04848 | 0.14 | 0.1 | – | – | –
nyo (GeneID 43716) | DRSC15029 | 0.38 | 0.41 | – | – | –
nyo (GeneID 43716) | DRSC15030 | 0.26 | 0.13 | – | – | –
heph (GeneID 48571) | DRSC14082 | 0.16 | 0.52 | – | – | –
heph (GeneID 48571) | DRSC14085 | 0.26 | 0.4 | – | – | –
heph (GeneID 48571) | DRSC15436 | 0.25 | -0.08 | – | – | –
heph (GeneID 48571) | DRSC16783 | 0.26 | 0.21 | – | – | –
mRpL22 (GeneID 32662) | DRSC19915 | -0.17 | -0.66 | – | – | –
CG34328 (GeneID 5740378) | DRSC19256 | -0.09 | -2.66 | – | – | –
Ir94c (GeneID 318727) | DRSC13539 | 0.41 | 0.5 | – | – | –
CG8765 (GeneID 40147) | DRSC11041 | -1.63 | -1.11 | – | – | reduced secretion
dbf (GeneID 34462) | DRSC02570 | -0.12 | 0.27 | – | – | –
CG33922 (GeneID 3771945) | DRSC00050 | 0.65 | 0.25 | – | – | –
Gpdh1 (GeneID 33824) | DRSC03336 | 0.24 | 0.27 | 0.13 | -0.02 | –
Gpdh1 (GeneID 33824) | DRSC21666 | -0.58 | 0.82 | – | – | –
CG42676 (GeneID 2768999) | DRSC08227 | 0.32 | 0.37 | – | – | –
CG42676 (GeneID 2768999) | DRSC08392 | 0.23 | 0.31 | – | – | –
CG14277 (GeneID 34129) | DRSC02380 | 0.17 | 0.15 | – | – | –
Syt7 (GeneID 43783) | DRSC17130 | 0.42 | 0.26 | – | – | –
Syt7 (GeneID 43783) | DRSC17159 | 0.47 | 0.49 | – | – | –
CG30270 (GeneID 251324) | DRSC22890 | 0.01 | -0.09 | – | – | –
Ir68b (GeneID 39378) | DRSC10251 | 0.43 | 0.25 | – | – | –
Zip48C (GeneID 36273) | DRSC06314 | 0.4 | 0.3 | – | – | –
Cpr47Ef (GeneID 36194) | DRSC06336 | 0.34 | 0.18 | – | – | –
Cpr47Ef (GeneID 36194) | DRSC22450 | -1.47 | 0.02 | – | – | –
AGBE (GeneID 326264) | DRSC06861 | 0.4 | 0.26 | – | – | –
Cpr49Ag (GeneID 36353) | DRSC07203 | 0.5 | 0.53 | – | – | –
CG7739 (GeneID 39684) | DRSC10910 | -0.07 | 0.17 | – | – | –
boly (GeneID 35809) | DRSC21629 | -0.9 | -1.02 | – | – | reduced secretion
CG30154 (GeneID 246487) | DRSC05889 | 0.11 | 0.12 | – | – | –
Task6 (GeneID 41671) | DRSC16530 | 0.18 | 0.33 | – | – | –
CG43104 (retired record) (GeneID 12798318) | DRSC05624 | 0.67 | 0.22 | – | – | –
cup (GeneID 33934) | DRSC03516 | 0.23 | -0.11 | – | – | –
CG31681 (GeneID 318882) | DRSC00107 | 0.51 | 0.41 | – | – | –
Nepl14 (GeneID 42700) | DRSC15631 | 0.07 | 0.22 | – | – | –
CG6484 (GeneID 36994) | DRSC06991 | 0.38 | 0.34 | – | – | –
CG34296 (GeneID 5740662) | DRSC13961 | -0.95 | -0.41 | – | – | –
CG34164 (GeneID 5740394) | DRSC02837 | 0.3 | 0.31 | – | – | –
CG1909 (GeneID 43800) | DRSC17150 | -0.28 | 0.06 | – | – | –
Mnt (GeneID 31331) | DRSC17894 | -0.31 | -0.43 | – | – | –
Mnt (GeneID 31331) | DRSC18480 | 0.37 | 0.28 | – | – | –
Sec71 (GeneID 34785) | DRSC01893 | -0.97 | -0.92 | – | – | –
CG31287 (GeneID 318663) | DRSC13138 | 0.38 | 0.46 | – | – | –
CG14605 (GeneID 40867) | DRSC12549 | 0.08 | -6.45 | – | – | –
CG5402 (GeneID 43306) | DRSC15792 | 0.01 | 0.58 | – | – | –
CG3841 (GeneID 34278) | DRSC02730 | 0.34 | 0.34 | – | – | –
Fst (GeneID 41169) | DRSC16491 | 0.97 | 0.64 | – | – | –
Ddx1 (GeneID 40457) | DRSC11862 | 0.2 | 0.42 | – | – | –
PIG-N (GeneID 36049) | DRSC06837 | 0.3 | 0.08 | – | – | –
Acsx2 (GeneID 42353) | DRSC14308 | 0.22 | 0.45 | – | – | –
CG31626 + CG8677 | DRSC21844 | 0.45 | 0.09 | – | – | –
CG10352 (GeneID 32147) | DRSC19353 | 0.15 | -0.08 | – | – | –
gry (GeneID 38391) | DRSC08028 | -0.49 | -0.23 | – | – | –
gry (GeneID 38391) | DRSC08518 | -0.47 | -0.28 | – | – | –
Mkp + CG34140 | DRSC08585 | 0.18 | 0.31 | – | – | –
hmw (GeneID 42207) | DRSC16277 | 0.09 | 0.29 | – | – | –
CG33178 (GeneID 318913) | DRSC19950 | 0.12 | 0.43 | – | – | –
CG33099 (GeneID 326254) | DRSC15774 | 0.34 | 0.3 | – | – | –
CG5897 (GeneID 39346) | DRSC10555 | 0.28 | 0.53 | – | – | –
CG5276 (GeneID 41373) | DRSC15759 | -0.2 | 0 | – | – | –
CG42822 (GeneID 10178916) | DRSC13232 | 0.15 | -0.07 | – | – | –
CG17712 (GeneID 33356) | DRSC00266 | 0.25 | 0.23 | – | – | –
CG5639 (GeneID 43314) | DRSC15851 | 0.32 | 0.5 | – | – | –
Cyp6a23 (GeneID 36661) | DRSC07383 | 0.34 | 0.43 | – | – | –
obst-H (GeneID 39681) | DRSC10935 | 0.61 | 0.47 | – | – | –
obst-H (GeneID 39681) | DRSC10940 | 0.42 | 0.39 | – | – | –
CG7694 (GeneID 42230) | DRSC16288 | 0.33 | 0.32 | – | – | –
CG34230 (GeneID 5740558) | DRSC05317 | -0.13 | 0.16 | – | – | –
CG15082 (GeneID 37173) | DRSC06513 | 0.3 | -0.07 | – | – | –
Tif-IA (GeneID 35454) | DRSC03717 | -0.11 | -0.42 | – | – | –
Tif-IA (GeneID 35454) | DRSC03726 | -0.71 | -0.76 | – | – | –
tex (GeneID 40983) | DRSC16517 | -0.39 | 0.13 | – | – | –
ORMDL (GeneID 40404) | DRSC11737 | 0.28 | 0.23 | – | – | –
Jarid2 (GeneID 39103) | DRSC10372 | 0.39 | 0.36 | – | – | –
CG43610 (GeneID 12798580) | DRSC00949 | -0.98 | 0.01 | – | – | –
CG33155 + mRpL53 | DRSC05461 | -0.73 | -0.13 | – | – | –
fru (GeneID 42226) | DRSC16951 | -2.59 | -2.3 | – | – | reduced secretion
fru (GeneID 42226) | DRSC16952 | 0.31 | 0.45 | 0.39 | 0.36 | reduced secretion
fru (GeneID 42226) | DRSC16953 | 0.37 | 0.28 | 0.48 | 0.16 | –
fru (GeneID 42226) | DRSC21600 | 0.31 | -0.14 | – | – | –
CG9372 (GeneID 40137) | DRSC11068 | -0.14 | 0.09 | – | – | –
